Test [1] concerns the target T1, FLAG-tagged Atg23 (S. cerevisiae) (UniProt Q06671).
T1 sequence: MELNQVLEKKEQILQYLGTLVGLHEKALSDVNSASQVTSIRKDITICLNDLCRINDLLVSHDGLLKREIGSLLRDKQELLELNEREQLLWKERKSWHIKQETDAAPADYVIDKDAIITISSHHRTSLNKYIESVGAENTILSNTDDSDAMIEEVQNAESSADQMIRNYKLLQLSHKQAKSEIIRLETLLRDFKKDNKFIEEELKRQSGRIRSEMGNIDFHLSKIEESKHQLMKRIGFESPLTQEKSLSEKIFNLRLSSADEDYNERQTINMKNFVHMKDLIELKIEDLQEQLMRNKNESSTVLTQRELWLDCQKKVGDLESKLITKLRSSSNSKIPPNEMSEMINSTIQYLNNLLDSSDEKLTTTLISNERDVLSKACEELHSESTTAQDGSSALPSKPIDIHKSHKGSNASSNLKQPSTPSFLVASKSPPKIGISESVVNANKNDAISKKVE
Put plainly: pull-down.

In test [2] the target is T2, Myc-Atg9^CTR_758-938-StrepII^2X (S. cerevisiae) (UniProt Q12142).
T2 sequence: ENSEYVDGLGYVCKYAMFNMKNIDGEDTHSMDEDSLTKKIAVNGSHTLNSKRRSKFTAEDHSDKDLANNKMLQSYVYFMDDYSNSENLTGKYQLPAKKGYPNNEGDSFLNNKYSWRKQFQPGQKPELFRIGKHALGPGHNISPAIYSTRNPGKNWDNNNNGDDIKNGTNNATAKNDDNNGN
Put plainly: pull-down.

From doi:10.1101/2025.11.06.685569 come the findings set out here.

No constants are given. Whether binding was seen depends on the method and setting. Sequences can lack the tags named with a protein.

For the molecule TRGGSFQDFRAEFIQRSTQFLTSLPEFCKEVVSRILGRSTAQRGGYSAV (domain or fragment, UniProt P46989 223-271) [SUMO*-Atg27^CTR-StrepII^2x], the binding entry in test [1] is on record as “no binding”.

B1: FLAG-tagged Atg23 (protein, UniProt Q06671 1-453)
chain: MELNQVLEKKEQILQYLGTLVGLHEKALSDVNSASQVTSIRKDITICLNDLCRINDLLVSHDGLLKREIGSLLRDKQELLELNEREQLLWKERKSWHIKQETDAAPADYVIDKDAIITISSHHRTSLNKYIESVGAENTILSNTDDSDAMIEEVQNAESSADQMIRNYKLLQLSHKQAKSEIIRLETLLRDFKKDNKFIEEELKRQSGRIRSEMGNIDFHLSKIEESKHQLMKRIGFESPLTQEKSLSEKIFNLRLSSADEDYNERQTINMKNFVHMKDLIELKIEDLQEQLMRNKNESSTVLTQRELWLDCQKKVGDLESKLITKLRSSSNSKIPPNEMSEMINSTIQYLNNLLDSSDEKLTTTLISNERDVLSKACEELHSESTTAQDGSSALPSKPIDIHKSHKGSNASSNLKQPSTPSFLVASKSPPKIGISESVVNANKNDAISKKVE
For B1, the binding result in test [2] is recorded as “no binding”.
